Literature values as cited in patent US20100086599A1, “ORAL MODIFIED RELEASE FORMULATIONS” (KAIROSMED GMBH, priority 2006, published 2010).
At least one compound was matched to its structure with a doubt left.

Details: oral minipill 0.03 mg/d, continuous treatment; cited from earlier work

## C#C[C@]1(O)CC[C@H]2[C@@H]3CCC4=CC(=O)CC[C@@H]4[C@H]3CC[C@@]21CC [levonorgestrel]
  Pearl Index: 1
